Test: PD1 extraction from murine lung, LC-PDA-MS-MS quantitation
Design: species or system mice
Details: mean+/−SEM, n=3

For `CC/C=C\C[C@H](O)\C=C/C=C/C=C/C(O)C/C=C\C/C=C\CCC(=O)O` (stereo in doubt) [PD1, 10,17S-dihydroxy-4,7,15,19-cis-11,13-trans-docosahexaenoic acid], the “PD1 generated from endogenous sources during allergic airway inflammation” value was 2.01+/−0.68 ng/mouse lungs.

Reference: patent US8933270B2, “Use of docasatrienes, resolvins, and their stable analogs in the treatment of airway diseases and asthma” (The Brigham and Women's Hospital, Inc., priority 2002, dated 2015)
